Record: PubChem BioAssay AID1224830 (NIAID, 2016)
The deposit covers about 18,000 reagents; this is an unselected part. Over the whole deposit, about 2,900 (16%) are marked active. 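Calls are made per well; low scores hint the gene aids the LPS response, high scores that it dampens it.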 Repeated entries: four replicate wells of each siRNA pool.

Screen: 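Genes whose knock-down alters the TNF-alpha reporter response to LPS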 (primary screen)
Cell system: human THP-1 monocytic leukaemia cells, TNF dual-luciferase reporter clone, PMA-differentiated to macrophage-like cells
Reagents: siRNA pool against human genes, 50 nM
Duration: LPS for 4 h, given about 3 days after siRNA transfection
Conditions: bacterial LPS (TLR4 ligand), 10 ng/ml
Measured: 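TNF firefly reporter luminescence divided by renilla, normalised to the plate median, then turned into a robust z-score for each replicate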
Reading the numbers: TNF reporter robust z-score: higher = stronger TNF reporter response to LPS
Active means: 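Each well counts as active if its z-score is over 2.8 or under -1.5; controls are left without a call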

no.	target	TNF reporter robust z-score	outcome
1	MESP1 (mesoderm posterior bHLH transcription factor 1)	-0.12	inactive
2	MESP1 (mesoderm posterior bHLH transcription factor 1)	-0.02	inactive
3	MESP1 (mesoderm posterior bHLH transcription factor 1)	0.04	inactive
4	MESP1 (mesoderm posterior bHLH transcription factor 1)	0.56	inactive
5	SERGEF (secretion regulating guanine nucleotide exchange factor)	0.8	inactive
6	SERGEF (secretion regulating guanine nucleotide exchange factor)	1.09	inactive
7	SERGEF (secretion regulating guanine nucleotide exchange factor)	2.17	inactive
8	SERGEF (secretion regulating guanine nucleotide exchange factor)	1.79	inactive
9	C1QA (complement C1q A chain)	0.5	inactive
10	C1QA (complement C1q A chain)	-0.25	inactive
11	C1QA (complement C1q A chain)	0.28	inactive
12	C1QA (complement C1q A chain)	-0.14	inactive
13	PICK1 (protein interacting with PRKCA 1)	2.41	inactive
14	PICK1 (protein interacting with PRKCA 1)	3.29	active
15	PICK1 (protein interacting with PRKCA 1)	6.22	active
16	PICK1 (protein interacting with PRKCA 1)	2.89	active
17	ITPKA (inositol-trisphosphate 3-kinase A)	-0.18	inactive
18	ITPKA (inositol-trisphosphate 3-kinase A)	-0.49	inactive
19	ITPKA (inositol-trisphosphate 3-kinase A)	0.01	inactive
20	ITPKA (inositol-trisphosphate 3-kinase A)	-0.24	inactive
21	ACSL1 (acyl-CoA synthetase long chain family member 1)	-0.5	inactive
22	ACSL1 (acyl-CoA synthetase long chain family member 1)	4.38	active
23	ACSL1 (acyl-CoA synthetase long chain family member 1)	0.38	inactive
24	ACSL1 (acyl-CoA synthetase long chain family member 1)	0.77	inactive
25	KLC4 (kinesin light chain 4)	0.31	inactive
26	KLC4 (kinesin light chain 4)	1.64	inactive
27	KLC4 (kinesin light chain 4)	-0.18	inactive
28	KLC4 (kinesin light chain 4)	1.66	inactive
29	SDHAF3 (succinate dehydrogenase complex assembly factor 3)	-0.78	inactive
30	SDHAF3 (succinate dehydrogenase complex assembly factor 3)	0.88	inactive
31	SDHAF3 (succinate dehydrogenase complex assembly factor 3)	0.09	inactive
32	SDHAF3 (succinate dehydrogenase complex assembly factor 3)	-0.09	inactive
33	BCLAF1 (BCL2 associated transcription factor 1)	0.31	inactive
34	BCLAF1 (BCL2 associated transcription factor 1)	1.04	inactive
35	BCLAF1 (BCL2 associated transcription factor 1)	0.25	inactive
36	BCLAF1 (BCL2 associated transcription factor 1)	1.18	inactive
37	LY96 (lymphocyte antigen 96)	-1.73	active
38	LY96 (lymphocyte antigen 96)	-1.77	active
39	LY96 (lymphocyte antigen 96)	-1.86	active
40	SURF4 (surfeit 4)	-0.29	inactive
41	SURF4 (surfeit 4)	0.05	inactive
42	SURF4 (surfeit 4)	0.18	inactive
43	SURF4 (surfeit 4)	0.4	inactive
44	PABPC1L2B (poly(A) binding protein cytoplasmic 1 like 2B)	-0.01	inactive
45	PABPC1L2B (poly(A) binding protein cytoplasmic 1 like 2B)	-0.99	inactive
46	PABPC1L2B (poly(A) binding protein cytoplasmic 1 like 2B)	-0.25	inactive
47	CHGA (chromogranin A)	-0.85	inactive
48	CHGA (chromogranin A)	-0.46	inactive
49	CHGA (chromogranin A)	-0.34	inactive
50	CHGA (chromogranin A)	0.34	inactive
51	SMYD3 (SET and MYND domain containing 3)	1.32	inactive
52	SMYD3 (SET and MYND domain containing 3)	2.82	active
53	SMYD3 (SET and MYND domain containing 3)	3.25	active
54	SMYD3 (SET and MYND domain containing 3)	1.61	inactive
55	PIWIL3 (piwi like RNA-mediated gene silencing 3)	-0.97	inactive
56	PIWIL3 (piwi like RNA-mediated gene silencing 3)	1.56	inactive
57	PIWIL3 (piwi like RNA-mediated gene silencing 3)	-0.28	inactive
58	PIWIL3 (piwi like RNA-mediated gene silencing 3)	0.15	inactive
59	ATPSCKMT (ATP synthase c subunit lysine N-methyltransferase)	0.86	inactive
60	ATPSCKMT (ATP synthase c subunit lysine N-methyltransferase)	-0.41	inactive
61	ATPSCKMT (ATP synthase c subunit lysine N-methyltransferase)	0.01	inactive
62	ATPSCKMT (ATP synthase c subunit lysine N-methyltransferase)	0.71	inactive
63	XPR1 (xenotropic and polytropic retrovirus receptor 1)	1.88	inactive
64	XPR1 (xenotropic and polytropic retrovirus receptor 1)	1.75	inactive
65	XPR1 (xenotropic and polytropic retrovirus receptor 1)	0.99	inactive
66	XPR1 (xenotropic and polytropic retrovirus receptor 1)	1.38	inactive
67	POLE (DNA polymerase epsilon, catalytic subunit)	-1.35	inactive
68	POLE (DNA polymerase epsilon, catalytic subunit)	-1.47	inactive
69	POLE (DNA polymerase epsilon, catalytic subunit)	-1.1	inactive
70	POLE (DNA polymerase epsilon, catalytic subunit)	-0.47	inactive
71	ZC3H7A (zinc finger CCCH-type containing 7A)	-0.65	inactive
72	ZC3H7A (zinc finger CCCH-type containing 7A)	0.46	inactive
73	ZC3H7A (zinc finger CCCH-type containing 7A)	-0.17	inactive
74	ZC3H7A (zinc finger CCCH-type containing 7A)	-0.81	inactive
75	PDE3B (phosphodiesterase 3B)	-0.92	inactive
76	PDE3B (phosphodiesterase 3B)	-1.31	inactive
77	PDE3B (phosphodiesterase 3B)	-1.07	inactive
78	PDE3B (phosphodiesterase 3B)	-0.49	inactive
79	ZNF419 (zinc finger protein 419)	0.07	inactive
80	ZNF419 (zinc finger protein 419)	-0.37	inactive
81	ZNF419 (zinc finger protein 419)	-0.09	inactive
82	ZNF419 (zinc finger protein 419)	-0.94	inactive
83	KRCC1 (lysine rich coiled-coil 1)	-0.77	inactive
84	KRCC1 (lysine rich coiled-coil 1)	0.14	inactive
85	KRCC1 (lysine rich coiled-coil 1)	-0.64	inactive
86	KRCC1 (lysine rich coiled-coil 1)	-0.07	inactive
87	GPC3 (glypican 3)	0.35	inactive
88	GPC3 (glypican 3)	0.34	inactive
89	GPC3 (glypican 3)	-0.02	inactive
90	GPC3 (glypican 3)	0.51	inactive
91	PACC1 (proton activated chloride channel 1)	0.52	inactive
92	PACC1 (proton activated chloride channel 1)	0.96	inactive
93	PACC1 (proton activated chloride channel 1)	0.04	inactive
94	PACC1 (proton activated chloride channel 1)	0.4	inactive
95	PSD4 (pleckstrin and Sec7 domain containing 4)	-1.27	inactive
96	PSD4 (pleckstrin and Sec7 domain containing 4)	-1.1	inactive
97	PSD4 (pleckstrin and Sec7 domain containing 4)	-0.77	inactive
98	PSD4 (pleckstrin and Sec7 domain containing 4)	-1.05	inactive
99	KLB (klotho beta)	-0.49	inactive
100	KLB (klotho beta)	-0.75	inactive
101	KLB (klotho beta)	-1.22	inactive
102	KLB (klotho beta)	-1.07	inactive
103	GASK1B (golgi associated kinase 1B)	0.65	inactive
104	GASK1B (golgi associated kinase 1B)	1.27	inactive
105	GASK1B (golgi associated kinase 1B)	3.24	active
106	GASK1B (golgi associated kinase 1B)	1.42	inactive
107	MAEL (maelstrom spermatogenic transposon silencer)	-0.7	inactive
108	MAEL (maelstrom spermatogenic transposon silencer)	0.65	inactive
109	MAEL (maelstrom spermatogenic transposon silencer)	0.02	inactive
110	MAEL (maelstrom spermatogenic transposon silencer)	1.23	inactive

No new results follow: 17 of the entries above.
no.	target	TNF reporter robust z-score	outcome
49	CHGA (chromogranin A)	-0.34	inactive
50	CHGA (chromogranin A)	0.34	inactive
51	SMYD3 (SET and MYND domain containing 3)	1.32	inactive
52	SMYD3 (SET and MYND domain containing 3)	2.82	active
53	SMYD3 (SET and MYND domain containing 3)	3.25	active
54	SMYD3 (SET and MYND domain containing 3)	1.61	inactive
55	PIWIL3 (piwi like RNA-mediated gene silencing 3)	-0.97	inactive
56	PIWIL3 (piwi like RNA-mediated gene silencing 3)	1.56	inactive
57	PIWIL3 (piwi like RNA-mediated gene silencing 3)	-0.28	inactive
58	PIWIL3 (piwi like RNA-mediated gene silencing 3)	0.15	inactive
59	ATPSCKMT (ATP synthase c subunit lysine N-methyltransferase)	0.86	inactive
60	ATPSCKMT (ATP synthase c subunit lysine N-methyltransferase)	-0.41	inactive
61	ATPSCKMT (ATP synthase c subunit lysine N-methyltransferase)	0.01	inactive
62	ATPSCKMT (ATP synthase c subunit lysine N-methyltransferase)	0.71	inactive
63	XPR1 (xenotropic and polytropic retrovirus receptor 1)	1.88	inactive
64	XPR1 (xenotropic and polytropic retrovirus receptor 1)	1.75	inactive
65	XPR1 (xenotropic and polytropic retrovirus receptor 1)	0.99	inactive
